Compound in this assay: CC1Cc2ccccc2N1C(=O)C1CCCN(C1)C(=O)CCl (mixture of isomers) [TRIM25 ligand 11 (diastereomer mixture)]
Put plainly: probe-labelled cysteine peptide fold change vs DMSO (competition) (log2 fold change); higher = less target engagement (more negative = stronger competition). Particulars: THP-1, incubation time: 4 h.

Amino acid sequences for entries named in this document (tags omitted). A change or cut given only in a name is not applied to a line headed by its entry.
UniProt Q9BXI6: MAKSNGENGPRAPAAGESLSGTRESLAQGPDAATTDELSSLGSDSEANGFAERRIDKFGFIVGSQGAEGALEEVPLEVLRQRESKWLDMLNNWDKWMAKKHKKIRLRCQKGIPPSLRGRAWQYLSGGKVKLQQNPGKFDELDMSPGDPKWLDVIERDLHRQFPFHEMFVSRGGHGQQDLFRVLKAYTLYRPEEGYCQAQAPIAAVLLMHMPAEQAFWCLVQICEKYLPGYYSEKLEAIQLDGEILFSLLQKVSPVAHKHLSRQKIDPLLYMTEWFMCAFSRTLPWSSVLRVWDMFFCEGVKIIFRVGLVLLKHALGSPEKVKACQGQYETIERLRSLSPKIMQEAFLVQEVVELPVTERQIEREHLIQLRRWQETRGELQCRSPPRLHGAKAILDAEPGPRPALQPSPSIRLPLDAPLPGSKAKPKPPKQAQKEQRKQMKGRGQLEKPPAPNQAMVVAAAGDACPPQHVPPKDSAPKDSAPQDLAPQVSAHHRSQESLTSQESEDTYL
UniProt Q12788: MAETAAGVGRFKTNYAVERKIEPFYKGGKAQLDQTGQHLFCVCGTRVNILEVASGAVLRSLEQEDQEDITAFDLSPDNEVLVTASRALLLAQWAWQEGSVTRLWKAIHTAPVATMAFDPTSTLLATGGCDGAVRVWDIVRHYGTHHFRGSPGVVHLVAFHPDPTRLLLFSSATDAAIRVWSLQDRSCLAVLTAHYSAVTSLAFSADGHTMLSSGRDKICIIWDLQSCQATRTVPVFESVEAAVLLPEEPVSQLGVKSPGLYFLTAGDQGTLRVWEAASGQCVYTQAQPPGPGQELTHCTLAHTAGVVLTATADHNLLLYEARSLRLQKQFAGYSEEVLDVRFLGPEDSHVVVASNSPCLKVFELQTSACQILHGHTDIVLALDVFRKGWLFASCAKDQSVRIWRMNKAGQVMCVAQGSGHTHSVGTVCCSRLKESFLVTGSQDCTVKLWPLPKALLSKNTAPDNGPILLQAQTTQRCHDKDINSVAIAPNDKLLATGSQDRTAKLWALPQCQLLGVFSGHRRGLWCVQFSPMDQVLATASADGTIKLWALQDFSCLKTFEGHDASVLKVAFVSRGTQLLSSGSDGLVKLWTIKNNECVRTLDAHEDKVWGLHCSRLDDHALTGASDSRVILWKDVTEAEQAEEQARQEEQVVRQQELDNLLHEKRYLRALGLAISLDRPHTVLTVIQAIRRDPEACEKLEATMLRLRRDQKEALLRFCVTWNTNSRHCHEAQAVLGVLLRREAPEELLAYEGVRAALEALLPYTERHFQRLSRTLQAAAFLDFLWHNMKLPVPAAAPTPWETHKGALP
UniProt Q8TEA7: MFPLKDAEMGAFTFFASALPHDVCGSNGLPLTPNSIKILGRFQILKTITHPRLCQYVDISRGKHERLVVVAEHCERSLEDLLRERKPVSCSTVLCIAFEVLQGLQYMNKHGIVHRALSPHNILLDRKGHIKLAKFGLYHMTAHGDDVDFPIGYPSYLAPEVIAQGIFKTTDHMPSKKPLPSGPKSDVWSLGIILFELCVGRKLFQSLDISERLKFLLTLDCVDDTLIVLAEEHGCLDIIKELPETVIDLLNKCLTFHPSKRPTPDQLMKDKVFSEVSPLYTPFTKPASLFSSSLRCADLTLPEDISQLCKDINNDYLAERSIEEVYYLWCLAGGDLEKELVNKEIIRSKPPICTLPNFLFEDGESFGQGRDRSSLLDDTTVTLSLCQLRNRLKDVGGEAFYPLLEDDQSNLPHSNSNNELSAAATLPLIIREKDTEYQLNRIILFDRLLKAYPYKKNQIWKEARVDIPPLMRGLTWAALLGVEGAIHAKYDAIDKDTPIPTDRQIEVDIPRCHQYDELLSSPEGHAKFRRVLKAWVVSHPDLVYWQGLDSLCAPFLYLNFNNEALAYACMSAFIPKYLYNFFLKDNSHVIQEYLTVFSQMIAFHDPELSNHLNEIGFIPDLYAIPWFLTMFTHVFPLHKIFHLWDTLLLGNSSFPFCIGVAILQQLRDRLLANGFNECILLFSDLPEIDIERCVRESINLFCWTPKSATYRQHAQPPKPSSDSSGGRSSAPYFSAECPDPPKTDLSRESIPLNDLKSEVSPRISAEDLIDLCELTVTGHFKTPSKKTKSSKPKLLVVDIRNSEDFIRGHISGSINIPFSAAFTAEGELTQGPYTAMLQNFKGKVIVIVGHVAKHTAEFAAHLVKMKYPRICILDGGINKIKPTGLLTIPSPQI
UniProt Q15572: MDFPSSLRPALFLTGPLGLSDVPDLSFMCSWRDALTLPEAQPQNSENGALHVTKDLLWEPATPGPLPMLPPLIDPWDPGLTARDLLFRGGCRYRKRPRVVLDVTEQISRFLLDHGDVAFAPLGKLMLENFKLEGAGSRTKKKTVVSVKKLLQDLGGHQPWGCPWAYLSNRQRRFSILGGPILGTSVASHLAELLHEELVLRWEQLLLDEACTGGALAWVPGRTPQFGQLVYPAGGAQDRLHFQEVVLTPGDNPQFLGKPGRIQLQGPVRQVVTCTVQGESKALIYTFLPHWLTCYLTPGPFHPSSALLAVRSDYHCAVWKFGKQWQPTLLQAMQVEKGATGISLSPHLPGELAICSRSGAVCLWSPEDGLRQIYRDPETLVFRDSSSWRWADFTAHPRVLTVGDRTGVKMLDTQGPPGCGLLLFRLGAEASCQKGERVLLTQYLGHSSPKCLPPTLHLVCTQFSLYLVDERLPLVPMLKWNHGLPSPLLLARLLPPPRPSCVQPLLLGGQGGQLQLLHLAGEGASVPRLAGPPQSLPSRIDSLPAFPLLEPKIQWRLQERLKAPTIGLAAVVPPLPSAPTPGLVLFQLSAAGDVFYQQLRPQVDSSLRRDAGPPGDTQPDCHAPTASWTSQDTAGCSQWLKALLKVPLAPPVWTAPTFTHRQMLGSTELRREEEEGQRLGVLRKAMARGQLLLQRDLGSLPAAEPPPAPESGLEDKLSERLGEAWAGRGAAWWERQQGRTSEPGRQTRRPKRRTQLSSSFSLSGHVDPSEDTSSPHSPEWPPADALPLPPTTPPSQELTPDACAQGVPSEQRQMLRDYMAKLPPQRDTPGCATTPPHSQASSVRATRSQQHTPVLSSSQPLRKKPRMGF
UniProt Q92797: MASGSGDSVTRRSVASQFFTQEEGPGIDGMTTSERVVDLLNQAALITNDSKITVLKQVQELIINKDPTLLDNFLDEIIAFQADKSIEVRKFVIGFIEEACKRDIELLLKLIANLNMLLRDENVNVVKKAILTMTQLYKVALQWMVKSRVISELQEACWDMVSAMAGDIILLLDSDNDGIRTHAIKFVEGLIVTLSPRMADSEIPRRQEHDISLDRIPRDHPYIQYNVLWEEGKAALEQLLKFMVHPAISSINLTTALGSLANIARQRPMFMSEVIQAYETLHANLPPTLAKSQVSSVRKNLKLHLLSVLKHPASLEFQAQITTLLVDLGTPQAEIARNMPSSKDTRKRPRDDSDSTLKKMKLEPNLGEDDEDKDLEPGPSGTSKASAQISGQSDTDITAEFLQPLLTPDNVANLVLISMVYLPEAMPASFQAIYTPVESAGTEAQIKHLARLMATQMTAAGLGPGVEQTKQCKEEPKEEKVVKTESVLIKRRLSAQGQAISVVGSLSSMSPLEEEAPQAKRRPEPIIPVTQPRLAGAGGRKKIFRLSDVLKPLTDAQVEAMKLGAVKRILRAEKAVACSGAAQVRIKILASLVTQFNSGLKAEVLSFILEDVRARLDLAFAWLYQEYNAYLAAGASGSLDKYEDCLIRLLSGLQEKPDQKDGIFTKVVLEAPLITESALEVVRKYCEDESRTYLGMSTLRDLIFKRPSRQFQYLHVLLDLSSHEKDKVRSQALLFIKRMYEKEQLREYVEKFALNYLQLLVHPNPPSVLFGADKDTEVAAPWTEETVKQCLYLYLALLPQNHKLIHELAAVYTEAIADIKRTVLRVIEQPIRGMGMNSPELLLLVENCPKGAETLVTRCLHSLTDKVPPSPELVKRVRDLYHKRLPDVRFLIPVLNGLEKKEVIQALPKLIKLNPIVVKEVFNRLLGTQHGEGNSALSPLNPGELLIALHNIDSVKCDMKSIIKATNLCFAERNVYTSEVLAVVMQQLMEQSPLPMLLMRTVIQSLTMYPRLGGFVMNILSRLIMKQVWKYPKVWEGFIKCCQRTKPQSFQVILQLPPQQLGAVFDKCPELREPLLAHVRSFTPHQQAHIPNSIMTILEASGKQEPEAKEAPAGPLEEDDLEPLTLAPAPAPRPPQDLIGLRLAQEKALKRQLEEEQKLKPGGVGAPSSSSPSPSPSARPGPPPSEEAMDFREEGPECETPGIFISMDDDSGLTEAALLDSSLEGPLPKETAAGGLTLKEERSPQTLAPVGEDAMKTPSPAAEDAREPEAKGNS
UniProt Q86TJ2: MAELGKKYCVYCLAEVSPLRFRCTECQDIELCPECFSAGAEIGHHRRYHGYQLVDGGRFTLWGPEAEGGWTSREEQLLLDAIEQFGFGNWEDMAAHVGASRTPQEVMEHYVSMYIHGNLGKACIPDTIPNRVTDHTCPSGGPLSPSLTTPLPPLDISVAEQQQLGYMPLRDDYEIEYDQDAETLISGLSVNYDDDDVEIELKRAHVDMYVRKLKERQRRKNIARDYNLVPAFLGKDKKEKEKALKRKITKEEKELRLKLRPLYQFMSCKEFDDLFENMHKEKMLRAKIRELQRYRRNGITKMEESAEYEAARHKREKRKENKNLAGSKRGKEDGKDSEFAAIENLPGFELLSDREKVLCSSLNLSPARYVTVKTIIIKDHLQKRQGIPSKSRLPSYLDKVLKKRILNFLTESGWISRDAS
UniProt Q9C0B7: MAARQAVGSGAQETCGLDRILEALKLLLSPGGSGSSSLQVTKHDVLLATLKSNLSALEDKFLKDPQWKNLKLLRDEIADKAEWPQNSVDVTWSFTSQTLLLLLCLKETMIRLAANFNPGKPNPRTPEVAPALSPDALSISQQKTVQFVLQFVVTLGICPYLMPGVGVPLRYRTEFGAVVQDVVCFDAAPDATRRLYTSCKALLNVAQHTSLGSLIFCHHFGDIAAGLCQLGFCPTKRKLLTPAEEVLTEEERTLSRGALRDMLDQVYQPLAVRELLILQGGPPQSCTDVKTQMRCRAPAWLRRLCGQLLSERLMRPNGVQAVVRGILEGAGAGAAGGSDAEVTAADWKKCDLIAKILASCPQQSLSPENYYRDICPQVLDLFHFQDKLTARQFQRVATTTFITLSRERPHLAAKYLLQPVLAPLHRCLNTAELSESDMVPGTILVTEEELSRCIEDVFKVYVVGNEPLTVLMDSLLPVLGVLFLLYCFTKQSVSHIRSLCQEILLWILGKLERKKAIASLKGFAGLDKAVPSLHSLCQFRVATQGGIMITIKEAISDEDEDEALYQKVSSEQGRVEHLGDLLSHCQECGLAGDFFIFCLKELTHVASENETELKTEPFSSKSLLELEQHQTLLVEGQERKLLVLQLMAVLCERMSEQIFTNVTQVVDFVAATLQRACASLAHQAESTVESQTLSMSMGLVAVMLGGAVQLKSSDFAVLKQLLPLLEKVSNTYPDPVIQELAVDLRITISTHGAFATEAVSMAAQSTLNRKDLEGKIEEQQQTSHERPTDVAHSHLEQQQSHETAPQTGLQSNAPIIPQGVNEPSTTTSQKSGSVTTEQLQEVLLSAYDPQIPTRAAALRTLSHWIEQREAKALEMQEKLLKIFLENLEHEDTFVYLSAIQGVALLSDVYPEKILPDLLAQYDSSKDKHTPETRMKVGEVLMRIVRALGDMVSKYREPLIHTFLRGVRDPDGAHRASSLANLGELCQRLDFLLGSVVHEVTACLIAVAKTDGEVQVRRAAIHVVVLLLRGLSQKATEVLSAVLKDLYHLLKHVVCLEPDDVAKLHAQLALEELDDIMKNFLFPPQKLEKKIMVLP
UniProt Q8TC07: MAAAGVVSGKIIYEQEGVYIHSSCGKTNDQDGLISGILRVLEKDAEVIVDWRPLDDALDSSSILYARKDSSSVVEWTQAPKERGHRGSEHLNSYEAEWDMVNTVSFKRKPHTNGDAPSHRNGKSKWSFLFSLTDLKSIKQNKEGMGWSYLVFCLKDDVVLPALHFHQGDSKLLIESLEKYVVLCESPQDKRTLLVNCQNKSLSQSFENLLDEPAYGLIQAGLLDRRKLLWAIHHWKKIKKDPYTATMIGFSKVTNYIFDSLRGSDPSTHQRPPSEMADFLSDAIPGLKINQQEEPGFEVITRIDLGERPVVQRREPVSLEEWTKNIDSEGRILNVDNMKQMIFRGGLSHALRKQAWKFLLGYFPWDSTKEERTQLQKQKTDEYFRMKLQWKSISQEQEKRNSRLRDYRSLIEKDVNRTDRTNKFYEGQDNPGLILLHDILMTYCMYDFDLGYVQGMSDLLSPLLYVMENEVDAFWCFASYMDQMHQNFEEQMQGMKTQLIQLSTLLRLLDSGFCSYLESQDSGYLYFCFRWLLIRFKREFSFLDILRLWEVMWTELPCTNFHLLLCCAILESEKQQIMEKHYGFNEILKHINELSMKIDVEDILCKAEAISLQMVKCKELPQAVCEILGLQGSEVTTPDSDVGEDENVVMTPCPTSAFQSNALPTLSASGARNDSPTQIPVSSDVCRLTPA

The text below walks through data of the supplement of paper PMC12067093, “Discovery and optimisation of a covalent ligand for TRIM25 and its application to targeted protein ubiquitination” (Chemical Science, 2025).

This is one part of the list.
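Also: competitive chemoproteomic profiling in live THP-1 cells with an iodoacetamide desthiobiotin (IA-DTB) probe, comparing probe-labelled peptide intensities in compound-treated cells against DMSO-treated controls.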

For “TBC1D10A_Q9BXI6_324_ACQGQYETIER (UniProt Q9BXI6)”, the “probe-labelled cysteine peptide fold change” value was -0.013 (10 µM) and -0.14 (50 µM).
On to “TBC1D1_Q86TI0_387+390_APAQLCEGCPLQSLHK (UniProt Q86TI0)”, for which the “probe-labelled cysteine peptide fold change” value reads like this: (10 µM) -0.0391; (50 µM) 0.0225.
Regarding “TBL3_Q12788_41_AQLDQTGQHLFCVCGTR (UniProt Q12788)”, the “probe-labelled cysteine peptide fold change” value worked out at 0.0881 (10 µM) and 0.0709 (50 µM).
For “TBCK_Q8TEA7_54_LCQYVDISR (UniProt Q8TEA7)”, the “probe-labelled cysteine peptide fold change” value by setting is: (10 µM) 0.0282; (50 µM) 0.131.
As to “TAF1C_Q15572_162_LLQDLGGHQPWGCPWAYLSNR (UniProt Q15572)”, the “probe-labelled cysteine peptide fold change” value amounted to 0.124 (10 µM) and 0.0532 (50 µM).
As for “SYMPK_Q92797_578_AVACSGAAQVR (UniProt Q92797)”, the “probe-labelled cysteine peptide fold change” value by setting is: (10 µM) -0.0221; (50 µM) 0.216.
Regarding “TBCD_Q9BTW9_406_ALADDVVGSVLDCFSFQETDK (UniProt Q9BTW9)”, the “probe-labelled cysteine peptide fold change” value is 0.403 (10 µM) and 0.00514 (50 µM).
For “SZT2_Q5T011_865_HTCVVQYILFPPHSTSTK (UniProt Q5T011)” the same measures were 0.144 and -0.0931.
Regarding “TADA2B_Q86TJ2_32+35_CTECQDIELCPECFSAGAEIGHHR (UniProt Q86TJ2)”, the “probe-labelled cysteine peptide fold change” value (10 µM) was 0.502.
With “TACC1_O75410_114_TCSKPSENEVPQQAIDSHSVK (UniProt O75410)”, the “probe-labelled cysteine peptide fold change” value reads like this: (10 µM) -0.236; (50 µM) -0.405.
As for “TAF2_Q6P1X5_357_CLAQSLAQQFFGCFISR (UniProt Q6P1X5)”, the “probe-labelled cysteine peptide fold change” value (50 µM) was -0.862.
On to “TANGO6_Q9C0B7_15_QAVGSGAQETCGLDR (UniProt Q9C0B7)”, for which the “probe-labelled cysteine peptide fold change” value by setting is: (10 µM) -0.0466; (50 µM) -0.0698.
For “TBCK_Q8TEA7_330_SIEEVYYLWCLAGGDLEK (UniProt Q8TEA7)” the same measures were 0.173 and -0.102.
Turning to “TBC1D15_Q8TC07_184_YVVLCESPQDKR (UniProt Q8TC07)”, the “probe-labelled cysteine peptide fold change” value (50 µM) amounted to 0.0631.
